According to article doi:10.1101/2022.06.21.497044 (bioRxiv, 2022):
For at least one entry, the source does not settle the construct or the ends of the probe. At least one verdict rests on a figure or table, not on a statement of the authors. For part of these data: Where a protein sequence is shown, tags need not be part of it.

What was measured:
Test in all cases: EMSA
GST-ABI5 + BBX31 (miP1a) = settings: supershift vs ABI5 alone
GST-ABI5 + BBX30 (miP1b) = settings: supershift vs ABI5 alone
[1] = biological target: T1, GST-ABI5 (Arabidopsis thaliana) (UniProt Q9SJN0); settings: residues 1-442
T1 sequence (looked up): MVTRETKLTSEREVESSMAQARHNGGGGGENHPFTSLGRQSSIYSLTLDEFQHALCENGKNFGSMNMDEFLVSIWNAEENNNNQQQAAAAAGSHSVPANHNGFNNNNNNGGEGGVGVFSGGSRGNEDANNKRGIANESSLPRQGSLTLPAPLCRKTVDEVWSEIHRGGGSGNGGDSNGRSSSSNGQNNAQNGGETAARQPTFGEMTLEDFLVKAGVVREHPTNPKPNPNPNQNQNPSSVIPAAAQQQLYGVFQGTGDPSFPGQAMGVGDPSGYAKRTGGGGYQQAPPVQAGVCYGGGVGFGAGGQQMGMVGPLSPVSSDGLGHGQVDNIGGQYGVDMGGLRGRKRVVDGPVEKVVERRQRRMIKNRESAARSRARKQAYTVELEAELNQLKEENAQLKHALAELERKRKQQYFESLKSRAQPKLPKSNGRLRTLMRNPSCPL

Measured: binding result

AATAAAGTCAGACACGTGGCATGTCACCAA (double strand) [EM6 promoter probe]
binds: all assays above

GCAAGAAACAGAAGAGAGACACGTGCAGGACACGTGTCGTCCGCAGCCGAACGGA (double strand) [ABI5 promoter probe]
binds: all assays above
